This passage reports binding results from paper PMC3605288.

The chains behind the UniProt entries cited, without tags or fusion partners. Where a name states a change or a piece, a line headed by the entry shows the natural chain unless it says otherwise.
UniProt Q62879: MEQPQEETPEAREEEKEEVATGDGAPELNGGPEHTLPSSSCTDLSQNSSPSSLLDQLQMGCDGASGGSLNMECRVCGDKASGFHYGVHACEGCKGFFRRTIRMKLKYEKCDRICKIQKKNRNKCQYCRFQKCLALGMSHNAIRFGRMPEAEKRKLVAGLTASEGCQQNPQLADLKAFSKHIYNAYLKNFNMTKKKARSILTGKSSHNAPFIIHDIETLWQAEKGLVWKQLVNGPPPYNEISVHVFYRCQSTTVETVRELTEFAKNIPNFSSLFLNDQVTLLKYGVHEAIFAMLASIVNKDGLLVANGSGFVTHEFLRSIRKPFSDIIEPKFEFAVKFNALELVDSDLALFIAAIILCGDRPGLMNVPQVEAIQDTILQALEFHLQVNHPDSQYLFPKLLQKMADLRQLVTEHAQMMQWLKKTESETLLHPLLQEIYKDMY
UniProt P06536: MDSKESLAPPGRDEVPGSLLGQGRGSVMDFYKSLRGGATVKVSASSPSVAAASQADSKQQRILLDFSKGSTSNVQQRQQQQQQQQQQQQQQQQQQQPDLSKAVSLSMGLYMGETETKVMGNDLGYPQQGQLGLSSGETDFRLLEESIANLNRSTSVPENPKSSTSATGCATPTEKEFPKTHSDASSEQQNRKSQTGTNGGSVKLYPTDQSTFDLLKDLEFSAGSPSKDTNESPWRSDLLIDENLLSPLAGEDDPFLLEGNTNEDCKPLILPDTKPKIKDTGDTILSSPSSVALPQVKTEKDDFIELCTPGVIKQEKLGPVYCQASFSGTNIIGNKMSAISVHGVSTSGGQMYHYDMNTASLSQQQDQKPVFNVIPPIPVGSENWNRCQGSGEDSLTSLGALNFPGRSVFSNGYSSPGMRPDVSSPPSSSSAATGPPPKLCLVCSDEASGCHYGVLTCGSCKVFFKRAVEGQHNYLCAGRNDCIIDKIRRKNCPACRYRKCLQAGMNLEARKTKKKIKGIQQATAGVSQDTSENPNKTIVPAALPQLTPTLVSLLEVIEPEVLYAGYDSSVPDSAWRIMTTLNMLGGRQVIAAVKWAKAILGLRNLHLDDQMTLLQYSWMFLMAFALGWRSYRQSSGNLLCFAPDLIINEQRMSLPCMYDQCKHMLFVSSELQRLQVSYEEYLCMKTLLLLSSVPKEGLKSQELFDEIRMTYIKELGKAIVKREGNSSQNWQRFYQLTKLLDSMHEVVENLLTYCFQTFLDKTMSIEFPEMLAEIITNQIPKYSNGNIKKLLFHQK

The target in this assay is peroxisome proliferator-activated receptor β/δ (rat (endogenous in L6 myotubes)) (UniProt Q62879). Kind of assay: co-IP; whole cell lysates (50 µg protein, Pierce IP Lysis Buffer) of L6 myotubes treated 24 h with 1 µM dexamethasone or vehicle; immunoprecipitated with goat anti-human PPARβ/δ antibody (Catch and Release v2.0 spin columns, overnight, 4°C), blotted for GR and PPARβ/δ.

No constants are given. Whether binding was seen depends on the method and setting. In cells and extracts the contact can be indirect. Some binding calls cover weakened binding; strength is not graded here.

Take “glucocorticoid receptor (from UniProt P06536 1-795)”: the binding entry is listed as “binds”.
